## Cleaved PARP in drug-treated melanoma cells

Values as published with doi:10.1371/journal.pone.0140310, rounded.

First drug in all entries: everolimus, 0.1 µM, CO[C@H]1C[C@@H]2CC[C@@H](C)[C@@](O)(O2)C(=O)C(=O)N2CCCC[C@H]2C(=O)O[C@H]([C@H](C)C[C@@H]2CC[C@@H](OCCO)[C@H](OC)C2)CC(=O)[C@H](C)/C=C(\C)[C@@H](O)[C@@H](OC)C(=O)[C@H](C)C[C@H](C)/C=C/C=C/C=C/1C

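Human melanoma cells were exposed to a pair of drugs for 72 h in 1,536-well plates and read by automated microscopy after fixing and staining. The read-out is the fraction of cleaved-PARP-positive nuclei, in % of that fraction in the DMSO control; 200 means twice the control level of this apoptosis marker. Concentrations were fixed for each drug; these are the higher of two levels. These are primary screening values without error estimates. Basal and induced levels differ widely between cell lines.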 Only some of the drugs and lines screened are listed, without regard to their results.

| # | Partner | A375 |
|---|---|---|
| 1 | C=CCNC1=C2C[C@@H](C)C[C@H](OC)[C@H](O)[C@@H](C)/C=C(\C)[C@H](OC(N)=O)[C@@H](OC)/C=C\C=C(/C)C(=O)NC(=CC1=O)C2=O at 0.01 µM | 76.4 |
| 2 | Oc1cc(-c2nc(-c3ccccc3)[nH]c2-c2ccncc2)ccc1Cl at 1 µM | 207 |
| 3 | CC(C)C[C@H](NC(=O)[C@H](Cc1ccccc1)NC(=O)c1cnccn1)B(O)O at 0.005 µM | 100 |
| 4 | CN1CCN(c2ccc3nc(-c4c(N)c5c(F)cccc5[nH]c4=O)[nH]c3c2)CC1 at 0.5 µM | 152 |
| 5 | C[C@]12O[C@H](C[C@]1(O)CO)n1c3ccccc3c3c4c(c5c6ccccc6n2c5c31)CNC4=O at 0.02 µM | 177 |
| 6 | Cc1nc(Nc2ncc(C(=O)Nc3c(C)cccc3Cl)s2)cc(N2CCN(CCO)CC2)n1 at 0.02 µM | 128 |
| 7 | NC(=O)c1ccc(N(C(N)=O)c2c(F)cccc2F)nc1-c1ccc(F)cc1F at 2 µM | 142 |
| 8 | O=C(Nc1cc(C(F)(F)F)cc(C(F)(F)F)c1)c1cc(Cl)ccc1O at 0.08 µM | 55.2 |
| 9 | CNC(=O)c1cc(Oc2ccc(NC(=O)Nc3ccc(Cl)c(C(F)(F)F)c3)cc2)ccn1 at 2 µM | 115 |
| 10 | C/C(O)=C(\C#N)C(=O)Nc1cc(Br)ccc1Br at 10 µM | 106 |
| 11 | COc1ccc(COc2ccc(Cc3cnc(N)nc3N)cc2OC)cc1 at 5 µM | 255 |
| 12 | NC1(c2ccc(-c3nc4ccn5c(=O)[nH]nc5c4cc3-c3ccccc3)cc2)CCC1 at 2 µM | 63.9 |
| 13 | CCCCCCCCCCCCCCCCCCOP(=O)([O-])OC1CC[N+](C)(C)CC1 at 2 µM | 78.0 |
| 14 | COc1ccc(C2=N[C@@H](c3ccc(Cl)cc3)[C@@H](c3ccc(Cl)cc3)N2C(=O)N2CCNC(=O)C2)c(OC(C)C)c1 at 0.5 µM | 52.2 |
| 15 | O=C1NC(=O)/C(=C/c2ccc(-c3ccc(F)cc3O)o2)S1 at 5 µM | 146 |
| 16 | O=C(O)c1ccc2c(c1)nc(Nc1cccc(Cl)c1)c1ccncc12 at 2 µM | 114 |
| 17 | CC[C@]1(O)C[C@H]2CN(CCc3c([nH]c4ccccc34)[C@@](C(=O)OC)(c3cc4c(cc3OC)N(C=O)[C@H]3[C@@](O)(C(=O)OC)[C@H](OC(C)=O)[C@]5(CC)C=CCN6CC[C@]43[C@@H]65)C2)C1 at 0.0005 µM | 115 |

Once more, the final 2:

| Partner | A375 |
|---|---|
| O=C(O)c1ccc2c(c1)nc(Nc1cccc(Cl)c1)c1ccncc12 at 2 µM | 114 |
| CC[C@]1(O)C[C@H]2CN(CCc3c([nH]c4ccccc34)[C@@](C(=O)OC)(c3cc4c(cc3OC)N(C=O)[C@H]3[C@@](O)(C(=O)OC)[C@H](OC(C)=O)[C@]5(CC)C=CCN6CC[C@]43[C@@H]65)C2)C1 at 0.0005 µM | 115 |